Among all 330,000 compounds or so, about 7,700 (2.3%) were called active. The inconclusive results got no clear call from the source; some entries with a clear call stand among them for comparison. Calls come from the whole dose curve; as a rule, active = well fitted inhibition curve with a large enough effect; inconclusive = small, poorly fitted or top-dose-only effect, or effect the other way; inactive = flat fitted curve, though single readings scatter. A potency beside an inconclusive call is a rough fit, not a confirmed value.
test: qHTS screen for small molecules that inhibit ELG1-dependent DNA repair in human embryonic kidney (HEK293T) cells expressing luciferase-tagged ELG1; details: HEK293T ELG1-luciferase reporter, luminescence, 16 h, DNA damage induced by 5-fluorouridine; activity change, negative = inhibition: at 46.1 µM (top of the series); note: nearly all actives have a fitted effect of over 55% in size
How it was run: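 Reporter activity after DNA damage by 5-fluorouridine is monitored. Compound-treated cells incubate 16 hr at 37 °C, then ONE-Glo is added for 30 min before luminescence reading.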
% is set by controls: 0 for no effect and ±100 for the full control effect; potency is the fitted concentration of half-maximal effect.

SMILES	Potency	activity change, negative = inhibition
COc1ccccc1NC(=O)N(Cc1ccco1)Cc1cc2cccc(C)c2[nH]c1=O	inconclusive: 4.11 µM [inhibitor, partial curve]	–
O=C(COc1ccccc1C(=O)O)Nc1ccc(SC(F)F)cc1	inconclusive: 13 µM [activator, partial curve]	–
O=C(CN1CCOCC1)Nc1ccc(S(=O)(=O)NC2CCCCC2)cc1	inconclusive: 20.6 µM [inhibitor, single point]	–
Cc1ccccc1NC(=O)COC(=O)c1ccc2c(c1)OCCO2	inconclusive: 29.1 µM [activator, single point]	–
Cc1ccc(NC(=O)CSc2nc3ccccc3nc2N2CCCC2)cc1	inconclusive: 29.1 µM [activator, single point]	–
CCOc1ccc(S(=O)(=O)NCCc2ccccn2)cc1	–	inactive: -1.24%
O=c1cc(Nc2ccc3c(c2)OCCO3)[nH]c(=O)n1-c1ccc(Cl)cc1	inconclusive: 25.9 µM [inhibitor, partial curve, poor fit]	–
Cn1c(=O)c2c(-c3ccccc3)n(C3CCCCC3)cc2n(C)c1=O	–	inactive: 3.62%
CCOC(=O)Nc1nnc(-c2ccc(OC)cc2)s1	inconclusive: 23.1 µM [activator, partial curve]	–
CSCC(=O)Nc1nc(-c2ccc3c(c2)OCCO3)cs1	inconclusive: 3.66 µM [activator, partial curve]	–
COc1ccc(C(=O)/C=C/c2cccc(OCc3ccccc3)c2)cc1CSCC(=O)O	inconclusive: 29.1 µM [activator, single point]	–
Cc1ccc(C(=O)N/N=C\c2ccc(-c3ccc(Cl)c(Cl)c3)o2)cn1	–	inactive: -15.6%
COc1ccc(CC(=O)NCC(=O)N/N=C/c2sccc2C)cc1	–	inactive: 11.6%
Cc1nc(Cl)sc1C(=O)Nc1ccccc1Cl	–	inactive: 0.991%
O=C(NCC1CCCO1)c1cc2ccccc2cc1O (stereo not given)	inconclusive: 23.1 µM [activator, partial curve]	–
CC(=O)O[C@@H]1[C@@]2(C)O[C@H]2CC[C@]23O[C@H]2[C@H](OC3=O)C2=C(C)C(=O)O[C@@]21O	–	inactive: 2.31%
COc1ccc(C(=O)NCc2nnc(SCC(=O)N3CCc4ccccc43)n2CCc2ccccc2)cc1	active: 14.6 µM	–
Cc1noc(C)c1S(=O)(=O)N(CC(=O)N1CCCC1)c1ccc(C(C)C)cc1	–	inactive: -0.182%
COCCn1c(N2CCN(c3ccccc3)CC2)nc2c1c(=O)n(C)c(=O)n2C	inconclusive: 18.3 µM [inhibitor, single point]	–
CC(=O)c1ccc(N2CCN(C(=O)Nc3ccc(Cl)cc3)CC2)cc1	active: 16.4 µM	–

Shown bar-delimited: entries from further up.
SMILES | Potency | activity change, negative = inhibition
CCOc1ccc(S(=O)(=O)NCCc2ccccn2)cc1 | – | inactive: -1.24%
O=c1cc(Nc2ccc3c(c2)OCCO3)[nH]c(=O)n1-c1ccc(Cl)cc1 | inconclusive: 25.9 µM [inhibitor, partial curve, poor fit] | –

— PubChem BioAssay AID504467 (National Center for Advancing Translational Sciences (NCATS), 2011)
